PubChem BioAssay AID493246 | Drosophila RNAi Screening Center – 2011
The screen tested about 21,000 reagents; below is a random part of those that have a named target and a result. Of all reagents, 429 (2%) are marked active. 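Values are raw and not normalised between plates; calls rest on per-plate z-scores that were not deposited.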 Not stated in the record: the amount of reagent, the time to read-out.

- Purpose: 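Genome-wide search for dsRNAs that reduce cell number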 (primary screen)
- System: Drosophila Kc and S2R+ cells
- Reagents: long dsRNA against Drosophila genes
- Detection: 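Cell number per well after knock-down, printed as raw plate values; calls were based on per-plate z-scores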
- Reading the numbers: Kc cell number and S2R+ cell number: higher = more cells remaining
- Active means: 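Counted as a hit if cell number falls by a z-score of at least 3 within its plate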

CG33110 [DRSC14694]: Kc cell number, rep 1 = 1.28e6; Kc cell number, rep 2 = 1.26e6; S2R+ cell number, rep 1 = 5.86e5; S2R+ cell number, rep 2 = 6.54e5; Outcome = active
CG33110 [DRSC16137]: Kc cell number, rep 1 = 1.74e6; Kc cell number, rep 2 = 1.66e6; S2R+ cell number, rep 1 = 9.87e5; S2R+ cell number, rep 2 = 1.17e6; Outcome = inactive
CG32147 [DRSC09346]: Kc cell number, rep 1 = 1.55e6; Kc cell number, rep 2 = 1.61e6; S2R+ cell number, rep 1 = 1.15e6; S2R+ cell number, rep 2 = 1.34e6; Outcome = inactive
Gs1 [DRSC00753]: Kc cell number, rep 1 = 1.41e6; Kc cell number, rep 2 = 1.40e6; S2R+ cell number, rep 1 = 8.59e5; S2R+ cell number, rep 2 = 7.62e5; Outcome = inactive

A portion from the list above, as a working copy:
CG33110 [DRSC14694]: Kc cell number, rep 1 = 1.28e6; Kc cell number, rep 2 = 1.26e6; S2R+ cell number, rep 1 = 5.86e5; S2R+ cell number, rep 2 = 6.54e5; Outcome = active
CG33110 [DRSC16137]: Kc cell number, rep 1 = 1.74e6; Kc cell number, rep 2 = 1.66e6; S2R+ cell number, rep 1 = 9.87e5; S2R+ cell number, rep 2 = 1.17e6; Outcome = inactive

The results go on:
CG9254 [DRSC01969]: Kc cell number, rep 1 = 1.65e6; Kc cell number, rep 2 = 1.64e6; S2R+ cell number, rep 1 = 1.33e6; S2R+ cell number, rep 2 = 1.48e6; Outcome = inactive
B4 [DRSC01868]: Kc cell number, rep 1 = 1.34e6; Kc cell number, rep 2 = 1.42e6; S2R+ cell number, rep 1 = 1.24e6; S2R+ cell number, rep 2 = 1.17e6; Outcome = inactive
B4 [DRSC03175]: Kc cell number, rep 1 = 1.55e6; Kc cell number, rep 2 = 1.61e6; S2R+ cell number, rep 1 = 1.27e6; S2R+ cell number, rep 2 = 1.41e6; Outcome = inactive
kmg [DRSC02829]: Kc cell number, rep 1 = 1.59e6; Kc cell number, rep 2 = 1.65e6; S2R+ cell number, rep 1 = 1.34e6; S2R+ cell number, rep 2 = 1.52e6; Outcome = inactive
CG7849 [DRSC04895]: Kc cell number, rep 1 = 1.51e6; Kc cell number, rep 2 = 1.58e6; S2R+ cell number, rep 1 = 1.22e6; S2R+ cell number, rep 2 = 1.34e6; Outcome = inactive
Obp93a [DRSC15220]: Kc cell number, rep 1 = 1.39e6; Kc cell number, rep 2 = 1.41e6; S2R+ cell number, rep 1 = 9.98e5; S2R+ cell number, rep 2 = 1.09e6; Outcome = inactive
PGRP-SC1b [DRSC07215]: Kc cell number, rep 1 = 1.39e6; Kc cell number, rep 2 = 1.43e6; S2R+ cell number, rep 1 = 1.22e6; S2R+ cell number, rep 2 = 1.28e6; Outcome = inactive
Mvb12 [DRSC20027]: Kc cell number, rep 1 = 1.50e6; Kc cell number, rep 2 = 1.51e6; S2R+ cell number, rep 1 = 1.14e6; S2R+ cell number, rep 2 = 1.21e6; Outcome = inactive
